Laboratory results: the supplement of paper PMC7666118
The list shows a part of the results.

By UniProt entry, the sequences of proteins in these tests, tags left out. Where a name states a change or a piece, a line headed by the entry shows the natural chain unless it says otherwise.
UniProt P78537: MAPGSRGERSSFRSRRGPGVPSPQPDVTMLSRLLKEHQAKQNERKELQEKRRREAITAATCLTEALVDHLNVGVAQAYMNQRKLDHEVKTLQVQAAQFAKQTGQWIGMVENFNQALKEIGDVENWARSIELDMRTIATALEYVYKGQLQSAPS
UniProt Q5JUR7: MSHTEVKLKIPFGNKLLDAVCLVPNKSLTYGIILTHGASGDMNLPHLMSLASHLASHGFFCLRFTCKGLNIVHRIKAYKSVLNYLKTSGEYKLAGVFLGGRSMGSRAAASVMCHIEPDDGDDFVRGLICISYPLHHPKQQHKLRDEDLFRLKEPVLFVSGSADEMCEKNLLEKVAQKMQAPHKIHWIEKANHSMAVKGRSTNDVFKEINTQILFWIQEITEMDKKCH
UniProt Q9Y679: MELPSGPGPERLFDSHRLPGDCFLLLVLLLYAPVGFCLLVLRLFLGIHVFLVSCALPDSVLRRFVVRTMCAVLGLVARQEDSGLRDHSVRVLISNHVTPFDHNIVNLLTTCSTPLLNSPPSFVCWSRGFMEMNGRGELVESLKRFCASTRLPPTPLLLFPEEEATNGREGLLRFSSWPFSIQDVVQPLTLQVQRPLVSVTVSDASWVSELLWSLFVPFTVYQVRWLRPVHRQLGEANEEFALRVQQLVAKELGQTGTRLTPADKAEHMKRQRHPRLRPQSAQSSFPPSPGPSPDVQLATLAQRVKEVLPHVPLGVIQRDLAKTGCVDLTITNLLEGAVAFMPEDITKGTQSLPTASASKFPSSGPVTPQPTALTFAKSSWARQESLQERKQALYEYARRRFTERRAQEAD
UniProt O00244: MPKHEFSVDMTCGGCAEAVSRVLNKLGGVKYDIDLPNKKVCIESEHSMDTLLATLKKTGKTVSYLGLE
UniProt Q9NQS1: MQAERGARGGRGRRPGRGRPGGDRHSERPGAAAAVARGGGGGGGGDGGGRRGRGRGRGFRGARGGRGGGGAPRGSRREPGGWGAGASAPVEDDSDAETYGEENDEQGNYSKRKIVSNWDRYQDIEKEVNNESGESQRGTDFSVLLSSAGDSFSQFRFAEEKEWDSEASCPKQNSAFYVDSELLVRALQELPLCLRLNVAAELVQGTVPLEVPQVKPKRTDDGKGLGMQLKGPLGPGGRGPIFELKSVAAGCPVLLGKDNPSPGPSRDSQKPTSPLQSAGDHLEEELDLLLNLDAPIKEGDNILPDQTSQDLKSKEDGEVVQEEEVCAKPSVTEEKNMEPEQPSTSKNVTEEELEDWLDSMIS
UniProt P07738: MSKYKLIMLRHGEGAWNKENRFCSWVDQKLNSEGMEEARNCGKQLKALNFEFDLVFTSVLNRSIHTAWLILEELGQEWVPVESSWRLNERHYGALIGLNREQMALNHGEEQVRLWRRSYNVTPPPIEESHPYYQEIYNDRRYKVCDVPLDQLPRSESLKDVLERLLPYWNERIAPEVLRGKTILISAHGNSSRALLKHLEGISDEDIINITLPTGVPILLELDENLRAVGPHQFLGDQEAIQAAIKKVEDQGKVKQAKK
UniProt O60566, whole entry: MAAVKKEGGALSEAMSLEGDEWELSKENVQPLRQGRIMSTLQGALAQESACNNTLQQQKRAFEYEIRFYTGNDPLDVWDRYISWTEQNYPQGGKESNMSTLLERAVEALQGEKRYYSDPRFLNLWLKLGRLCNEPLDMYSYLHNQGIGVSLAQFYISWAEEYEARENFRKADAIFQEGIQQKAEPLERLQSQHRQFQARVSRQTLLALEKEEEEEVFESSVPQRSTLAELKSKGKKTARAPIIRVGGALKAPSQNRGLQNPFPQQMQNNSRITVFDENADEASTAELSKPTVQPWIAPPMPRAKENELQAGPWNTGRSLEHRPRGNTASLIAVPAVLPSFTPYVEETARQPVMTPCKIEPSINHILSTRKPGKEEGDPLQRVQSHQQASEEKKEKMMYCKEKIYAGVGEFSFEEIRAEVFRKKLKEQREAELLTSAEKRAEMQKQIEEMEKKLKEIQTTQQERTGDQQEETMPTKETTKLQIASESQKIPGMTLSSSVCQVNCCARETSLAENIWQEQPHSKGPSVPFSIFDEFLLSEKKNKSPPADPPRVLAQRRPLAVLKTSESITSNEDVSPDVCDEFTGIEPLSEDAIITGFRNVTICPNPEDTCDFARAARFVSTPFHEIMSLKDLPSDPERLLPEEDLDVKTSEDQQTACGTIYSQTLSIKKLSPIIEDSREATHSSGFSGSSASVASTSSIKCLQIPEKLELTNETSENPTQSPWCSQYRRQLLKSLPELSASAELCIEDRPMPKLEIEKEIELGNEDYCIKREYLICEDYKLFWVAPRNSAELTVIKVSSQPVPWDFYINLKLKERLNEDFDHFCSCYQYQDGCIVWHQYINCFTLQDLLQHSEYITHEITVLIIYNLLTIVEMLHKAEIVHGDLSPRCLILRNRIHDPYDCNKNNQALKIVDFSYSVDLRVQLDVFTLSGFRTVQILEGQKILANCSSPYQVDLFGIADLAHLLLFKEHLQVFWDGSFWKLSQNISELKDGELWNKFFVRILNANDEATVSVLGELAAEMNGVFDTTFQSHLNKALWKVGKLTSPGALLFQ
UniProt P46100: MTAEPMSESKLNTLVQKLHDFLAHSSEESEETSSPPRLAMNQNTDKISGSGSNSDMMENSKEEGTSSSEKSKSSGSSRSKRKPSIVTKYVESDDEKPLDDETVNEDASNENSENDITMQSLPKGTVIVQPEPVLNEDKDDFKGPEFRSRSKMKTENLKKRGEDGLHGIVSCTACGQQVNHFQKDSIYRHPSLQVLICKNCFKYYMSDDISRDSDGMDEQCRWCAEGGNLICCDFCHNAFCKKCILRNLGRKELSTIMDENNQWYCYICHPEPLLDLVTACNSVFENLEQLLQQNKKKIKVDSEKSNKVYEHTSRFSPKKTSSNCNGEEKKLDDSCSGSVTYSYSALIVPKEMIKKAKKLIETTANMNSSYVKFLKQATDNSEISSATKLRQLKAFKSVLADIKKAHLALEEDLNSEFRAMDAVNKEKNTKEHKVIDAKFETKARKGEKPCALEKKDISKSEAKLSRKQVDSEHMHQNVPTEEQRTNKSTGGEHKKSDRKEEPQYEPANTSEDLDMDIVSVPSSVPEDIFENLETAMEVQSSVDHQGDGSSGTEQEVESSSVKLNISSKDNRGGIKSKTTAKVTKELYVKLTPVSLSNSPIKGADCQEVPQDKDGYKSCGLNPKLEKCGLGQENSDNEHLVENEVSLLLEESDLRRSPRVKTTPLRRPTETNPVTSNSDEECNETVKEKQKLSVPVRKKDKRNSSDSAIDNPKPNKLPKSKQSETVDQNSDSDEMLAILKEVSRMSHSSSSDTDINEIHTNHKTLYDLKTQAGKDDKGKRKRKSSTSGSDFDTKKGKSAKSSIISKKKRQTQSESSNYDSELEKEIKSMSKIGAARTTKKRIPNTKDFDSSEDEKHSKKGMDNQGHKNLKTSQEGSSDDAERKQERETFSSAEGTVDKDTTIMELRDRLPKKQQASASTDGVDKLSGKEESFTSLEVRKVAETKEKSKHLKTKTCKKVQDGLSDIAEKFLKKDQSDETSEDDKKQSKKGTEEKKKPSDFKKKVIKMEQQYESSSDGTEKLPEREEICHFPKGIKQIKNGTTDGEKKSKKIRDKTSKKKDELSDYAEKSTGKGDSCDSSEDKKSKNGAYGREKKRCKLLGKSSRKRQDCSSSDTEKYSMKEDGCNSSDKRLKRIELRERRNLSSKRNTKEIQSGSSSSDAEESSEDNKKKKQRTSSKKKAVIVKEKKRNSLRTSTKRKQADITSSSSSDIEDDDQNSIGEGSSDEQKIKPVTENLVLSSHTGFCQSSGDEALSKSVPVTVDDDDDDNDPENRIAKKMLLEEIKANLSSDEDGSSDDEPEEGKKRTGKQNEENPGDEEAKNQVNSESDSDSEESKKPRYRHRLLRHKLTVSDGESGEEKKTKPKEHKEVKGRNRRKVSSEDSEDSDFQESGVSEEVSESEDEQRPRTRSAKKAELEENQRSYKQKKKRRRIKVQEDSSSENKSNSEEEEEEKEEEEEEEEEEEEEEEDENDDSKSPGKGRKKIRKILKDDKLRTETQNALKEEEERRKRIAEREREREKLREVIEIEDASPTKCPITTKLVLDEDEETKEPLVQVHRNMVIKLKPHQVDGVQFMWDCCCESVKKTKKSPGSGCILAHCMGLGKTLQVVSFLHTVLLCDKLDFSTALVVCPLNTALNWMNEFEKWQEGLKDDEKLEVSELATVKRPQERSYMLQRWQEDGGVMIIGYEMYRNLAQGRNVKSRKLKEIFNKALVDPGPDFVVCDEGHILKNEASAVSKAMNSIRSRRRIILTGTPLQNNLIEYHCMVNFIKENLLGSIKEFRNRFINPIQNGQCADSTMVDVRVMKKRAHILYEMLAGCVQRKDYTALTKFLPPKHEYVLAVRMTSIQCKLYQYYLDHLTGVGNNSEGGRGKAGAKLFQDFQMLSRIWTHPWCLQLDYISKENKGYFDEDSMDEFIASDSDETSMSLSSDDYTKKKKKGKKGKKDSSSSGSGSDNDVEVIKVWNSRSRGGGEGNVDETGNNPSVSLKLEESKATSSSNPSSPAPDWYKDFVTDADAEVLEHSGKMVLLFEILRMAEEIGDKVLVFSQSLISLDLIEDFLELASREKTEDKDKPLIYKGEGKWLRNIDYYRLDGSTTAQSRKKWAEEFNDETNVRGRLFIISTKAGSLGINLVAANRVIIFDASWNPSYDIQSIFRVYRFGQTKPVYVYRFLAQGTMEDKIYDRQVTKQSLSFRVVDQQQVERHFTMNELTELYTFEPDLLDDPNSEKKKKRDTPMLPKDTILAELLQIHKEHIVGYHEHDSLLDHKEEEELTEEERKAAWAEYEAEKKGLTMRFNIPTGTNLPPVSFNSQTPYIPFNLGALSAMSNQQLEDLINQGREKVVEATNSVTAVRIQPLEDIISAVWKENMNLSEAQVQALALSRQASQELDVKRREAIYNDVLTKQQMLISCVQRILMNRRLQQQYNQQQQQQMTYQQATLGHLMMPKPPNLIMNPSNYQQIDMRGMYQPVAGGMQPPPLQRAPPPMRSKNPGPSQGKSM
UniProt Q9NVI7: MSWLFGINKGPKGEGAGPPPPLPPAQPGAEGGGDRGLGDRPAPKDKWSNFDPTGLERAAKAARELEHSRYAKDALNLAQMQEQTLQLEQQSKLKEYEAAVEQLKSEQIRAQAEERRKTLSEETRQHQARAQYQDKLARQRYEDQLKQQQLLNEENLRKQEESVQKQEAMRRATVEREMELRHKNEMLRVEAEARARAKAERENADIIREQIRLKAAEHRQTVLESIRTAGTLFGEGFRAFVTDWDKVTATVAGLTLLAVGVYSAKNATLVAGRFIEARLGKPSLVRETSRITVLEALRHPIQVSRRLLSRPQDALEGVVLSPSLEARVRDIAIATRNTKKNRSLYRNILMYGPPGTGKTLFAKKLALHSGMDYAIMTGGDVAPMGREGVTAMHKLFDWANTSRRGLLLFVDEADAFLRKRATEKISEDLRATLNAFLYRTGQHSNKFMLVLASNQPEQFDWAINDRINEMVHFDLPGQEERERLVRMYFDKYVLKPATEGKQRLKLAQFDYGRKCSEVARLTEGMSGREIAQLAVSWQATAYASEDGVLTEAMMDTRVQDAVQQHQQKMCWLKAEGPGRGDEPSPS
UniProt Q9Y5K8, whole entry: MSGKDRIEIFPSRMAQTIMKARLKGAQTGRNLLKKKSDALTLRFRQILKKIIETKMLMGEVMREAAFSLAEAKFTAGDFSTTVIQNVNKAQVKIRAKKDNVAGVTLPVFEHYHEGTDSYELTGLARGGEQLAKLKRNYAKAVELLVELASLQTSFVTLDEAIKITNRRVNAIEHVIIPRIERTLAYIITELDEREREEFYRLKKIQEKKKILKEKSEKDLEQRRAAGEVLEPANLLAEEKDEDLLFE

compound: COc1ccc(Cn2ccc3ccc(C(=O)NO)cc32)cc1; experiment: dose-dependent thermal stabilisation call (2D-TPP, DLPTP, 10% FDR) (binary (1 = stabilised)); higher = stabilised by the compound; settings: system: HL-60 intact cells; concentration range 0.04-10 µM

Target | dose-dependent thermal stabilisation call
BLOC1S1 (UniProt P78537) | inactive: 0
C13ORF27 (UniProt Q5JUR7) | inactive: 0
AUP1 (UniProt Q9Y679) | inactive: 0
BCL7C (UniProt Q8WUZ0) | inactive: 0
ATOX1 (UniProt O00244) | inactive: 0
AVEN (UniProt Q9NQS1) | inactive: 0
BPGM (UniProt P07738) | inactive: 0
BUB1B (UniProt O60566) | inactive: 0
ATRX (UniProt P46100) | inactive: 0
ATAD3A (UniProt Q9NVI7) | inactive: 0
ATP6V1D (UniProt Q9Y5K8) | inactive: 0
